{
  "source": "PubChem BioAssay AID2685",
  "about": "(National Center for Advancing Translational Sciences (NCATS), 2010)",
  "note": "The whole screen tested about 320,000 compounds, of which about 2,100 (0.66%) were called active. Inconclusive results, whose numbers are uncertain, are shown with a selection of clear calls. Calls come from the whole dose curve; as a rule, active = well fitted inhibition curve with a large enough effect in the signal ratio, with a control signal flat (not every such curve was filed as active); inconclusive = small, poorly fitted or top-dose-only effect, or effect the other way, or a change in a side signal; inactive = flat fitted curve, though single readings scatter; the % refers to the signal ratio. Where the call is inconclusive, the potency comes from a doubtful curve fit. % is set by controls: 0 for no effect and ±100 for the full control effect; potency is the fitted concentration of half-maximal effect.",
  "data": [
    {"test": "qHTS Assay for Lipid Storage Modulators in Drosophila S3 Cells", "conditions": "BODIPY lipid droplet fluorescence, 18-24 h, cells fed with added oleic acid; lipid storage change, negative = inhibition: at 46.1 µM (top of the series) unless noted", "procedure,_shortened": "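Drosophila S3 cells got compounds at several concentrations plus oleic acid (400 uM solution). Laser-scanning cytometry with 488 nm excitation read lipid droplets at 500-530 nm and cells at 575-640 nm. Percent activity was relative to 20 uM Triacsin C.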", "values": [
      {"compound": "Cc1ccc(NC(=O)NCCSc2ccc(C)cc2)cc1", "lipid storage change, negative = inhibition": "inconclusive: 41.1%"},
      {"compound": "CCc1ccccc1N(CC(=O)OC)S(C)(=O)=O", "lipid storage change, negative = inhibition": "inconclusive: -75.7%"},
      {"compound": "CCOc1cc(CN2CCCC(N3CCc4ccccc4C3)C2)ccc1O", "note": "(configuration not stated)", "lipid storage change, negative = inhibition": "inconclusive: 109%"},
      {"compound": "O=C(O)c1ccc2c(c1)C(=O)N(Cc1ccco1)C2=O", "Potency": "inconclusive: 29.1 µM [activator, single point]"},
      {"compound": "COC(=O)c1cc(OC)c(OC)cc1N1C(=O)CC(C)(C)CC1=O", "lipid storage change, negative = inhibition": "inconclusive: 8.13%"},
      {"compound": "CCCn1c(CCC(=O)O)nc2cc(S(=O)(=O)N3CCCC3)ccc21", "Potency": "inconclusive: 0.731 µM [falling, full curve, poor fit]"},
      {"compound": "COc1ccc2c(c1OC)C(=O)N1c3ccccc3C(=O)N(c3ccccc3)C21", "note": "(configuration not stated)", "lipid storage change, negative = inhibition": "inconclusive: 22.7%"},
      {"compound": "CC(C)C(=O)N1CCN(c2ccc(NC(=O)c3cccs3)cc2Cl)CC1", "lipid storage change, negative = inhibition": "inconclusive: -17.3%"},
      {"compound": "C[C@@]12C(=O)N(Cc3ccc(-c4ccccc4)cc3)CC(=O)N1[C@H](/C=C/c1ccccc1)[C@@H]1C(=O)N(c3ccccc3)C(=O)[C@@H]12", "Potency": "inconclusive: 29.1 µM [falling, single point]"},
      {"compound": "COc1cc(/C=N/NC(=O)c2nc(C)cc(C)n2)ccc1O", "Potency": "inconclusive: 6.51 µM [falling, single point]"},
      {"compound": "Cc1cc(N2CCOCC2)nc2cc(O)ccc12", "lipid storage change, negative = inhibition": "inactive: 4.23%"},
      {"compound": "O=C(Cn1c2ccc(F)cc2c2nc3n(c(=O)c21)CCS3)NC1CCCC1", "lipid storage change, negative = inhibition": "inconclusive: -26.1%"},
      {"compound": "CCOC(=O)C1=C(C)N=c2s/c(=C\\c3ccc(C(=O)O)cc3)c(=O)n2C1c1ccc(F)cc1", "note": "(configuration not stated)", "lipid storage change, negative = inhibition": "inconclusive: -43.9%"},
      {"compound": "COc1cccc(C(=O)N/N=C(\\CC(C)C)c2ccccc2)c1", "lipid storage change, negative = inhibition": "inconclusive: 23.3%"},
      {"compound": "O=c1c(Cl)c(N2CCN(c3ccc(F)cc3)CC2)cnn1-c1nc2ccccc2s1", "lipid storage change, negative = inhibition": "inconclusive: 9.96%"},
      {"compound": "CN(C)CCNC(=O)c1ccc2c(c1)N(Cc1ccc(F)cc1)CCS2", "lipid storage change, negative = inhibition": "inconclusive: 49.8% [activator]"},
      {"compound": "CCCc1cc(=O)oc2cc(OCC(=O)NCCc3c[nH]c4ccc(OC)cc34)ccc12", "Potency": "active: 8.2 µM"},
      {"compound": "COC(=O)C1=C(C)NC(=S)NC1c1ccco1", "note": "(configuration not stated)", "lipid storage change, negative = inhibition": "inconclusive: -12.1%"},
      {"compound": "CCOC(=O)c1oc2ccc(S(=O)(=O)N3CCC(C)CC3)cc2c1C", "Potency": "inconclusive: 1.3 µM [activator, partial curve]"},
      {"compound": "Cc1ccc(C(C)C)cc1OCC(=O)Nc1ccc(-n2cnnn2)cc1", "Potency": "inconclusive: 2.91 µM [falling, partial curve]"},
      {"compound": "COC(=O)COc1ccc(S(=O)(=O)NCCC2=CCCCC2)cc1C", "lipid storage change, negative = inhibition": "inconclusive: -35.2%"},
      {"compound": "O=C(CN1CCC(NC(=O)Nc2ccccc2)CC1)Nc1cccc([N+](=O)[O-])c1", "Potency": "inconclusive: 0.58 µM [activator, single point]"},
      {"compound": "Cc1cc(=O)oc2cc(OCCSCCN3CCOCC3)ccc12", "lipid storage change, negative = inhibition": "inconclusive: 34.3%"},
      {"compound": "CC(C)(C)c1ccc(-c2nnc(SCC(=O)NC3CC3)o2)cc1", "Potency": "inconclusive: 29.1 µM [falling, single point]"},
      {"compound": "Cc1cccc(C(=O)Nc2ccc3ccccc3c2)c1", "Potency": "inconclusive: 6.51 µM [falling, single point]"},
      {"compound": "O=[N+]([O-])c1cccc(NC2=NCCC2)c1", "Potency": "inconclusive: 6.51 µM [falling, single point]"},
      {"compound": "Cc1cc(C)n(-c2ccc(C(=O)Nc3cc(S(=O)(=O)N(C)C)ccc3Cl)cc2)n1", "lipid storage change, negative = inhibition": "inconclusive: -11.6%"},
      {"compound": "O=C(Nn1c(-c2ccccc2)nc2ccccc2c1=O)C1CCC1", "Potency": "inconclusive: 29.1 µM [falling, single point]"},
      {"compound": "CCN(c1ccc(NC(=O)c2ccc(Cl)nc2)cc1)C(C)C", "lipid storage change, negative = inhibition": "inconclusive: 9.06%"},
      {"compound": "Cc1ccc(OCC(=O)OC(C)CN(C)Cc2ccccc2)cc1", "note": "(configuration not stated)", "Potency": "inconclusive: 0.164 µM [falling, full curve, poor fit]"},
      {"compound": "O=C1CSC(=S)N1/N=C/c1c(F)cccc1F", "lipid storage change, negative = inhibition": "inconclusive: -171%"},
      {"compound": "Cc1cc(C)c(OCCCCCNCCO)c(C)c1", "Potency": "active: 25.9 µM"},
      {"compound": "CC1CCCC2(C1)NC(=S)c1c(sc3c1CCCC3)N2", "note": "(configuration not stated)", "lipid storage change, negative = inhibition": "inconclusive: 0.311%"},
      {"compound": "Cc1cccc(Nc2nc(NCc3ccco3)nc(N)c2[N+](=O)[O-])c1", "lipid storage change, negative = inhibition": "inconclusive: -18.4%"},
      {"compound": "CN(CC(=O)Nc1ccccc1Br)Cc1nc2ccccc2c(=O)[nH]1", "lipid storage change, negative = inhibition": "inconclusive: 7.52%"},
      {"compound": "Cc1[nH]n(-c2ccccc2)c(=O)c1N=Nc1ccc(C#N)cc1", "lipid storage change, negative = inhibition": "inconclusive: 9.21%"},
      {"compound": "CCOc1[nH]n(-c2ccc(Cl)cc2)c(=O)c1C=NCC(=O)OC", "lipid storage change, negative = inhibition": "inconclusive: -3.11%"},
      {"compound": "CC(CCc1ccccc1)NC(=O)C1CCN(C(=O)c2sccc2-n2cccc2)CC1", "note": "(configuration not stated)", "lipid storage change, negative = inhibition": "inconclusive: 60%"},
      {"compound": "COc1cc2[nH]c(=S)nc(NCc3cccc(Cl)c3)c2cc1OC", "lipid storage change, negative = inhibition": "inconclusive: -9.39%"},
      {"compound": "Cc1c(C)c2c(OCC(=O)NCc3ccccn3)cc3c(c2oc1=O)CCC(C)(C)O3", "lipid storage change, negative = inhibition": "inconclusive: -80.7%"},
      {"compound": "COCc1c(C(=O)OCC(=O)Nc2ccc(OC(F)F)cc2)oc2ccccc12", "Potency": "inconclusive: 1.3 µM [falling, full curve]"},
      {"compound": "COc1ccc(NC(=O)Cc2ccsc2)c(OC)c1", "Potency": "inconclusive: 18.4 µM [activator, partial curve, poor fit]"},
      {"compound": "O=C(NC(=S)Nc1ccc(S(=O)(=O)Nc2nccs2)cc1)c1ccc(F)c(F)c1", "lipid storage change, negative = inhibition": "inconclusive: 9.13%"},
      {"compound": "Cc1occc1-c1nnc(SCC(=O)Nc2ccc(F)cc2)n1Cc1ccccc1", "Potency": "inconclusive: 3.66 µM [activator, partial curve]"},
      {"compound": "O=C(C1CC1)N1N=C(c2ccccc2)CC1(O)C(F)(F)F", "note": "(configuration not stated)", "Potency": "inconclusive: 2.59 µM [falling, single point]"},
      {"compound": "Cc1ccc(C)c(N2CCN(C(=O)CC3Sc4ccccc4NC3=O)CC2)c1", "note": "(configuration not stated)", "lipid storage change, negative = inhibition": "inconclusive: -8.63%"},
      {"compound": "O=C1NC(=O)C2(COC(c3ccccc3Cl)OC2)S1", "note": "(configuration not stated)", "lipid storage change, negative = inhibition": "inconclusive: 2.22%"},
      {"compound": "CC(=O)Nc1ccc(S(=O)(=O)Nc2cccc(-c3csc(C)n3)c2)cc1", "Potency": "inconclusive: 0.0052 µM [falling, full curve, poor fit]"},
      {"compound": "CN(C)c1cccc(C(=O)Nc2nc3ccccc3[nH]2)c1", "Potency": "active: 14.6 µM"},
      {"compound": "CN(Cc1ccccc1)C(=O)COc1cc(=O)n(C)c2ccccc12", "lipid storage change, negative = inhibition": "inconclusive: -12.9%"},
      {"compound": "CCCN(C(=O)CCCSc1nc2ccccc2[nH]1)c1c(N)n(Cc2ccccc2)c(=O)[nH]c1=O", "lipid storage change, negative = inhibition": "inconclusive"},
      {"compound": "CCCCN(C)CC(O)Cn1cc(/C=C/C(=O)c2ccc(C)cc2)c2ccccc21", "note": "(configuration not stated)", "Potency": "inconclusive: 29.1 µM [cytotoxic, single point]"},
      {"compound": "Cc1csc(NC(=O)c2cccc(C)c2C)n1", "lipid storage change, negative = inhibition": "inconclusive: -19.9%"},
      {"compound": "O=c1c2ccccc2c(C=Nc2cccc(S(=O)(=O)NC3=NCCCCC3)c2)c(O)n1Cc1ccccc1", "lipid storage change, negative = inhibition": "inconclusive: 9.64%"},
      {"compound": "CSCC[C@H](NC(=O)Nc1ccc(C)cc1C)C(=O)O", "lipid storage change, negative = inhibition": "inconclusive: -5.85%"},
      {"compound": "COc1cc(C(=O)N2C(=O)c3cccc(N)c3C2=O)cc(OC)c1OC", "lipid storage change, negative = inhibition": "inconclusive: 9.65%"},
      {"compound": "Cc1ccc(OCC(=O)N2CCc3ccccc3C2)cc1", "lipid storage change, negative = inhibition": "inconclusive: 27.2%"},
      {"compound": "Cc1cc(C(=O)NCc2ccc(S(N)(=O)=O)cc2)c(C)o1", "Potency": "inconclusive: 29.1 µM [falling, single point]"},
      {"compound": "CC(C(=O)N(C)Cc1ccccc1)N1CCN(C/C=C/c2ccccc2)CC1", "note": "(configuration not stated)", "lipid storage change, negative = inhibition": "inconclusive: 10.7%"},
      {"compound": "O=C(Cc1n[nH]c(=O)c2ccccc12)NCc1ccccc1", "lipid storage change, negative = inhibition": "inconclusive: 23.1%"},
      {"compound": "CC(=O)OCCNc1cc(SCc2ccco2)c2nonc2c1[N+](=O)[O-]", "Potency": "inconclusive: 18.4 µM [falling, single point]"},
      {"compound": "COc1cccc(NC(=S)N(CCN(C)C)C(C)c2ccncc2)c1", "note": "(configuration not stated)", "lipid storage change, negative = inhibition": "inconclusive: 11.8%"},
      {"compound": "CN(C)/C=N/c1cc(=O)n(C)c(=O)n1Cc1ccccc1", "lipid storage change, negative = inhibition": "inconclusive: 17.1%"},
      {"compound": "CC(C)(C)C(=O)Nc1cccc(OC(F)(F)C(F)Cl)c1", "note": "(configuration not stated)", "lipid storage change, negative = inhibition": "inconclusive: -5.13%"},
      {"compound": "Cc1ccc2oc(C(=O)N3CCN(C)C[C@@H]3C(C)C)c(C)c2c1", "lipid storage change, negative = inhibition": "inconclusive: 38.2%"},
      {"compound": "CC1(C)Oc2ccc3ccc(=O)oc3c2[C@@H](O)[C@H]1O", "lipid storage change, negative = inhibition": "inconclusive: 6.44%"},
      {"compound": "CC(C)N(Cc1nc(-c2ccccc2)no1)S(=O)(=O)c1ccccc1", "Potency": "inconclusive: 29.1 µM [falling, single point]"},
      {"compound": "COc1ccc2nc(C)cc(SCC(=O)N/N=C/c3ccc(O)cc3O)c2c1", "Potency": "inconclusive: 18.4 µM [falling, single point]"},
      {"compound": "O=C(C[n+]1cc(-c2ccc(Cl)cc2)n2c1CCCCC2)c1ccccc1", "lipid storage change, negative = inhibition": "inconclusive: -3.63%"},
      {"compound": "C=CCOc1ccccc1CN1CCC(n2nccc2NC(=O)C2CC2)CC1", "Potency": "inconclusive: 10.3 µM [activator, single point]"},
      {"compound": "Cc1cc(Oc2ccc(C(C)(C)C)cc2)nc(N2CCOCC2)n1", "lipid storage change, negative = inhibition": "inconclusive: 32.9%"},
      {"compound": "CCN(CC)CCNC(C(=O)Nc1ccc([N+](=O)[O-])cc1Br)c1ccccc1", "note": "(configuration not stated)", "lipid storage change, negative = inhibition": "inconclusive: -31.2%"},
      {"compound": "CC(OC(=O)c1oc2ccccc2c1CSC1CCCCC1)C(=O)NC(N)=O", "note": "(configuration not stated)", "lipid storage change, negative = inhibition": "inconclusive: 43.9%"},
      {"compound": "Cc1ccc(S(=O)(=O)Cc2ccc(C(=O)N3CCCCC3C)cc2)cc1", "note": "(configuration not stated)", "lipid storage change, negative = inhibition": "inconclusive: -4.34%"},
      {"compound": "CC(C)(O)[C@H](O)COc1c2occc2cc2ccc(=O)oc12", "Potency": "inconclusive: 0.461 µM [activator, full curve]"},
      {"compound": "CNC(=O)c1c(O)c2cccc3c2n(c1=O)CCC3", "lipid storage change, negative = inhibition": "inconclusive: 1.79%"},
      {"compound": "Cc1nn(CC(=O)NCCCN2CCCC2)c(=O)c2nn(-c3ccccc3)c(C)c12", "lipid storage change, negative = inhibition": "inconclusive: -23.7%"}
    ]}
  ]
}
